The results in this text go back to doi:10.1101/2019.12.17.878660 (bioRxiv, 2019).

Protein sequences, listed by entry. Tags and fused reporters are not part of them. Lines headed by an entry give the natural chain unless they say otherwise; changes in a name come on top.
UniProt P0ABZ6: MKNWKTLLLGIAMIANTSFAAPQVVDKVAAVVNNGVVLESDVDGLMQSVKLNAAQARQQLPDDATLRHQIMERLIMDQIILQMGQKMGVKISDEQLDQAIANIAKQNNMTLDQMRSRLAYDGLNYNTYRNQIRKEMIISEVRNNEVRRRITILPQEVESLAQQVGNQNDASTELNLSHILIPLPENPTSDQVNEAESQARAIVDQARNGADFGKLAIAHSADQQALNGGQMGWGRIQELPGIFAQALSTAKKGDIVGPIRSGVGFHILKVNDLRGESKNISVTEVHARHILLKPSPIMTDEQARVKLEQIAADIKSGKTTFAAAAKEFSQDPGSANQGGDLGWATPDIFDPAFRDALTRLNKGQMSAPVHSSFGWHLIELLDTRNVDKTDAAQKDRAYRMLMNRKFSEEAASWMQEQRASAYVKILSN

Results are given in words; binding and its absence hold for the method and conditions named. A result given as binding can be weak or reduced; the word gives no strength.

The target of this assay is uOmpA171 (the transmembrane domain of uOmpA) (E. coli) (UniProt P0A910). The assay can be described thus: cross-linking.

As to SurA (from UniProt P0ABZ6 21-428), the binding result was “binds”. For the substance ““locked-closed” SurA variant (P61C/A218C) (from UniProt P0ABZ6 21-428)”, the binding result is given as “binds weakly”.
